Our source for the binding values is PMC13344282.

Protein sequences, listed by entry. Tags and fused reporters are not part of them.
UniProt P57682: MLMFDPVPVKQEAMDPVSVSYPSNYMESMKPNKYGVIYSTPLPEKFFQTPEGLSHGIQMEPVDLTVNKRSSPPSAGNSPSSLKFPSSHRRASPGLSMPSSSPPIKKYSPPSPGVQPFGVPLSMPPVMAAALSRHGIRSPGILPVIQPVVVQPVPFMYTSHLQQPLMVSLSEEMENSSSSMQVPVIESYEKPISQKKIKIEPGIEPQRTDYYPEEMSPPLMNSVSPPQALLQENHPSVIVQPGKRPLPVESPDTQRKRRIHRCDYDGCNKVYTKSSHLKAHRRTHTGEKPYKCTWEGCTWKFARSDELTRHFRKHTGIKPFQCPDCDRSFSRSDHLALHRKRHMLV
UniProt P08047: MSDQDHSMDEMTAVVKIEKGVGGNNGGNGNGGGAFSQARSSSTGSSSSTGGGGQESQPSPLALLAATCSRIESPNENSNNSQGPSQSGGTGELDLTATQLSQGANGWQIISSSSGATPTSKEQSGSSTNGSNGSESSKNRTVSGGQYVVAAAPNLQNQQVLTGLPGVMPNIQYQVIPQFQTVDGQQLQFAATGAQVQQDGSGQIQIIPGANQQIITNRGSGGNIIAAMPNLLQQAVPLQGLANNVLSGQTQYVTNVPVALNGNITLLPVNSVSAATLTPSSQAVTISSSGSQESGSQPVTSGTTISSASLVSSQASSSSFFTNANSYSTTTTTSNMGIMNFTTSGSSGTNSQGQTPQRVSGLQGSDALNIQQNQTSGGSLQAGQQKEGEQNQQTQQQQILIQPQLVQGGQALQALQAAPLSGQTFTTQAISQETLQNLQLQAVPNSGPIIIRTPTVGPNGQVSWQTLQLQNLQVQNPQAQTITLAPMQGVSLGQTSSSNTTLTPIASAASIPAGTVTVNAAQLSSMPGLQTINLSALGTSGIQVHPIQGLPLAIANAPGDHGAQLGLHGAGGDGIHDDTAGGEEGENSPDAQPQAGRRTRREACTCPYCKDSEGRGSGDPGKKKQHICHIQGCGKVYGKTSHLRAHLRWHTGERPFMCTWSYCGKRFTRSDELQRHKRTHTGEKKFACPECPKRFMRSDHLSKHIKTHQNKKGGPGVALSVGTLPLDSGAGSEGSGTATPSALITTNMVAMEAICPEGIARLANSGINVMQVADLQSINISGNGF

T1: SYCP1 (synaptonemal complex protein 1), endogenous in MCF7 cells (human (endogenous in MCF7)) (UniProt Q15431)
T1 sequence: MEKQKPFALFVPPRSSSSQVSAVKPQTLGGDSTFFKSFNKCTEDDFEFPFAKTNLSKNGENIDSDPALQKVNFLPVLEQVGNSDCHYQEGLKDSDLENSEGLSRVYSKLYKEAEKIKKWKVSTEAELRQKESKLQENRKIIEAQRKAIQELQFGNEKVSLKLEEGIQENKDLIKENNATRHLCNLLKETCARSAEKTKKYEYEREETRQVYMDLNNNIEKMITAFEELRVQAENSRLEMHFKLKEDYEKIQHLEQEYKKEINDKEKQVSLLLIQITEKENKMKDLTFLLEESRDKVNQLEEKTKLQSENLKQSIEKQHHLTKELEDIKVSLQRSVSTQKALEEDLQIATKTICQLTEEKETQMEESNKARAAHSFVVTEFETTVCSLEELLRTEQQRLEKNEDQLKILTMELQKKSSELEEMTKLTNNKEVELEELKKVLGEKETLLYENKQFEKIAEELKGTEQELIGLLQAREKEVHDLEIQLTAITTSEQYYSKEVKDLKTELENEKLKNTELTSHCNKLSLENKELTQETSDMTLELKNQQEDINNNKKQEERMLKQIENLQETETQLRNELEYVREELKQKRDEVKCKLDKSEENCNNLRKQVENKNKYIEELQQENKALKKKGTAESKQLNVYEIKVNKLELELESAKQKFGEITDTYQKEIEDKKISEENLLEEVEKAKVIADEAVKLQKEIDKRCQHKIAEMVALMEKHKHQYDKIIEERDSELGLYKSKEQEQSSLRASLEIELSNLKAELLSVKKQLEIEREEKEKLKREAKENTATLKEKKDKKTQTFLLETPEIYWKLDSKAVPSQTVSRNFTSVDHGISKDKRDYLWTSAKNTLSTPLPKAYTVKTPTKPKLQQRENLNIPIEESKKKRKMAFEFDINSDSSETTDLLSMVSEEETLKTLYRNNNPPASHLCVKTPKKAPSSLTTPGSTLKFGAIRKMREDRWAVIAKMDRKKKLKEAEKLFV

B1: NFX1 (protein, UniProt Q12986 1-1120)
chain: MAEAPPVSGTFKFNTDAAEFIPQEKKNSGLNCGTQRRLDSNRIGRRNYSSPPPCHLSRQVPYDEISAVHQHSYHPSGSKPKSQQTSFQSSPCNKSPKSHGLQNQPWQKLRNEKHHIRVKKAQSLAEQTSDTAGLESSTRSESGTDLREHSPSESEKEVVGADPRGAKPKKATQFVYSYGRGPKVKGKLKCEWSNRTTPKPEDAGPESTKPVGVFHPDSSEASSRKGVLDGYGARRNEQRRYPQKRPPWEVEGARPRPGRNPPKQEGHRHTNAGHRNNMGPIPKDDLNERPAKSTCDSENLAVINKSSRRVDQEKCTVRRQDPQVVSPFSRGKQNHVLKNVETHTGSLIEQLTTEKYECMVCCELVRVTAPVWSCQSCYHVFHLNCIKKWARSPASQADGQSGWRCPACQNVSAHVPNTYTCFCGKVKNPEWSRNEIPHSCGEVCRKKQPGQDCPHSCNLLCHPGPCPPCPAFMTKTCECGRTRHTVRCGQAVSVHCSNPCENILNCGQHQCAELCHGGQCQPCQIILNQVCYCGSTSRDVLCGTDVGKSDGFGDFSCLKICGKDLKCGNHTCSQVCHPQPCQQCPRLPQLVRCCPCGQTPLSQLLELGSSSRKTCMDPVPSCGKVCGKPLPCGSLDFIHTCEKLCHEGDCGPCSRTSVISCRCSFRTKELPCTSLKSEDATFMCDKRCNKKRLCGRHKCNEICCVDKEHKCPLICGRKLRCGLHRCEEPCHRGNCQTCWQASFDELTCHCGASVIYPPVPCGTRPPECTQTCARVHECDHPVYHSCHSEEKCPPCTFLTQKWCMGKHEFRSNIPCHLVDISCGLPCSATLPCGMHKCQRLCHKGECLVDEPCKQPCTTPRADCGHPCMAPCHTSSPCPVTACKAKVELQCECGRRKEMVICSEASSTYQRIAAISMASKITDMQLGGSVEISKLITKKEVHQARLECDEECSALERKKRLAEAFHISEDSDPFNIRSSGSKFSDSLKEDARKDLKFVSDVEKEMETLVEAVNKGKNSKKSHSFPPMNRDHRRIIHDLAQVYGLESVSYDSEPKRNVVVTAIRGKSVCPPTTLTGVLEREMQARPPPPIPHHRHQSDKNPGSSNLQKITKEPIIDYFDVQD

No constants are given. Whether binding was seen depends on the method and setting. In cells and extracts the contact can be indirect. Some entries that bind do so weakly or less than the wild type.

This experiment addresses T1, SYCP1 (synaptonemal complex protein 1), endogenous in MCF7 cells (human (endogenous in MCF7)). Put plainly: co-IP; endogenous SYCP1 precipitated from MCF7 lysate with anti-SYCP1 (Abcam, 15090) and protein G sepharose, overnight at 4°C; washes with PBS, 0.2% Triton X-100, 350 mM NaCl and PBS, 0.2% Triton X-100; Western blot for the transcription factors.
Regarding KLF3 (from UniProt P57682 1-345), the binding entry is “no binding”.

Consider SP1 (from UniProt P08047 1-785), for which the binding entry is “binds”.

Consider B1, for which the binding result was “no binding”.
